Binding data for 1 substance are collected here from publication PMC7103907.

Sequences of proteins named here, by UniProt entry; tags and fusion partners are left off.
UniProt Q8R4B8: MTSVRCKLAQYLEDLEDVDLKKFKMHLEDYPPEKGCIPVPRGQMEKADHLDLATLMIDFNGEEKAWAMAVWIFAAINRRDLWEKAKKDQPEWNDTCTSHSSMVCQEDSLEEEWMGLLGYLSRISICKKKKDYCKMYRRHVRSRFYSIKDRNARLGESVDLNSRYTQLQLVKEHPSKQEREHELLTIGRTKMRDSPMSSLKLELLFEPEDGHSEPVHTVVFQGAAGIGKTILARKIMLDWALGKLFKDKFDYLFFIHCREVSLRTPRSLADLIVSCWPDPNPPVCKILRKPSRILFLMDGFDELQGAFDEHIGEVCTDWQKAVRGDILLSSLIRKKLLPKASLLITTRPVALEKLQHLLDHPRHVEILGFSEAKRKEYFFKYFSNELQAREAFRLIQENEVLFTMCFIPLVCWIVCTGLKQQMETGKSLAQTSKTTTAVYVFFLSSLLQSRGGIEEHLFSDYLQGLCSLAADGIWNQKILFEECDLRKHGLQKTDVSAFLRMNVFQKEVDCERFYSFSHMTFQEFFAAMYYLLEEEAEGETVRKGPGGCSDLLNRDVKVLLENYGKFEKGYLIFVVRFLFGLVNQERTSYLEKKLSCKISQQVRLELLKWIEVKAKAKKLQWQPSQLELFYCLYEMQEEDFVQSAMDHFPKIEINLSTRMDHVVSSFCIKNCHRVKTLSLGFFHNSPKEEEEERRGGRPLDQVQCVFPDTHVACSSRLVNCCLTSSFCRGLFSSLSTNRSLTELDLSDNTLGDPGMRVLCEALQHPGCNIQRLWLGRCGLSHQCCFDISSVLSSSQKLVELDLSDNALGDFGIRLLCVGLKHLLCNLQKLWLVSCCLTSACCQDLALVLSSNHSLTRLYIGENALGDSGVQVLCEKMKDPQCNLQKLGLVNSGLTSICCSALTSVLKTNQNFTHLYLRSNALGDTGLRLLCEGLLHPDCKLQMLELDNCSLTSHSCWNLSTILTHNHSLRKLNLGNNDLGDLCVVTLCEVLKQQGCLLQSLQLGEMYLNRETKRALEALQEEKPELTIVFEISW
UniProt P18760: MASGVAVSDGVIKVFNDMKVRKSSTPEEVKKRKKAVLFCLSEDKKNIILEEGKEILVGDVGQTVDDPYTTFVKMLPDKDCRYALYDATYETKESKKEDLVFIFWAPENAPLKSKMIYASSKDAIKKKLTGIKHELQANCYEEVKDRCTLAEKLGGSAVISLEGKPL

These are yes or no findings as the source states them, for the method shown. Binding seen in cells or lysates may run through a third protein. These calls come from enrichment with a bait or labelling near it, and not all partners need be listed.

The assay deals with NLRP3 (mouse (endogenous in BMDM)) (UniProt Q8R4B8). Kind of assay: affinity purification with mass spectrometry; immune complexes precipitated by NLRP3 specific antibody from BMDMs of WT or NLRP3-KO mice, analysed by mass spectrometry.

For the substance Cofilin-1 (from UniProt P18760 1-166), the binding result is recorded as “binds”.
